From publication PMC9017153
The exact form of at least one protein or probe is not confirmed. At least one verdict rests on a figure or table, not on a statement of the authors.

Amino acid sequences for entries named in this document (tags omitted).
UniProt Q8CJG0, whole entry: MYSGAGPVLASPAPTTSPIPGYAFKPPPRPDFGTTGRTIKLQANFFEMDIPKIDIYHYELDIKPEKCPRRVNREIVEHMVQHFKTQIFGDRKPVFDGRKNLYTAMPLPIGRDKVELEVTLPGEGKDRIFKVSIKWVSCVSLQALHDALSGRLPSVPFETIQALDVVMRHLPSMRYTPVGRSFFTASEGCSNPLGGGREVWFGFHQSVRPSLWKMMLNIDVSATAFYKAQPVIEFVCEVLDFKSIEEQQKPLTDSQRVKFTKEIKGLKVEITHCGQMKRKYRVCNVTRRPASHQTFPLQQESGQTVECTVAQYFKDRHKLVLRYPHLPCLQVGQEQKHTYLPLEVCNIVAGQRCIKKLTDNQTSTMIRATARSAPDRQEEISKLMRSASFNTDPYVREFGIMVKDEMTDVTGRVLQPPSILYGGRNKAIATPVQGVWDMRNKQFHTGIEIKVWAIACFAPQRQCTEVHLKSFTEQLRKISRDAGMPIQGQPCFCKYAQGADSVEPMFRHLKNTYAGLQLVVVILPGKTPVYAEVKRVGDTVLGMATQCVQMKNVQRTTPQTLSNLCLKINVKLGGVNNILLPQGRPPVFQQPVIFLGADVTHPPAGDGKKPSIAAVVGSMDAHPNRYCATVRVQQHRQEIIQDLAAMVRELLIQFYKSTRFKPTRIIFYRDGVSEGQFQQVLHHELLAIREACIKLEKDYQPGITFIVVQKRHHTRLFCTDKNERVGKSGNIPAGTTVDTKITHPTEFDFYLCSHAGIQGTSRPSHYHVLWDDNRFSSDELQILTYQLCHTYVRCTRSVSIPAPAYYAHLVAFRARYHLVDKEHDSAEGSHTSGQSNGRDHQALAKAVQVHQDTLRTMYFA

Experiments:
[1] = biological target: AGO2 (RISC loaded with miR-449a) (mouse) (UniProt Q8CJG0); assay: double-filter binding titration; details: 0.5 nM target; phosphorothioate flanked by 2'-O-methyl at t10 and t11 per Methods; 5' phosphate; filter titration: 30 mM HEPES-KOH pH 7.9, 120 mM K acetate, 3.5 mM Mg acetate, 2 mM DTT, 0.01% CHAPS, 37 C, 1 h; recombinant protein; protein details: 3xFLAG; label: 5' 32P
[2] = biological target: AGO2 (RISC loaded with let-7a) (mouse) (UniProt Q8CJG0); assay: double-filter binding titration; details: 0.5 nM target; target: phosphorothioate flanked by 2'-O-methyl at t10 and t11 per Methods; 5' phosphate; filter titration: 30 mM HEPES-KOH pH 7.9, 120 mM K acetate, 3.5 mM Mg acetate, 2 mM DTT, 0.01% CHAPS, 37 C, 1 h; recombinant protein; protein details: 3xFLAG; label: 5' 32P on target

“AUGAAAUCGAUAUCUAUCACUGCCAACU [miR-449a titration target]”: binds [1].

“UGAGGUAGUAGGUUGUAUAGU / AAAAUGAUAACAAGGAUCUACCUCAAAA [let-7a guide / titration target]”: binds [2].
